1 compound from patent US6787149B1 (El Khoury and Stein Ltd., priority 2000, dated 2004) can be followed below.

Series [1] has as its system patient with severe infection of the skin around the colostomy.
Series [2] concerns patients who had skin burns from the sun. The following applies: less than one mg, diluted and sprayed on the shoulder areas.
The subject of series [3] is patients with inflamed skin conditions causing intense pain. The experiment in a line: Topical morphine sulfate formulations (spray or K-Y gel) in patients with painful inflamed skin conditions, Tables 1 and 2.

For the compound `CN1CC[C@]23c4c5ccc(O)c4O[C@H]2[C@@H](O)C=C[C@H]3[C@H]1C5.O=S(=O)(O)O` [Morphine, morphine sulfate], the “Pain during changing of the dressing” value in series [1] (15 or 30 mg i.v.) is on record as “still experienced severe pain”. In series [1] (morphine drip), the “Dulling of pain for dressing change and wound cleaning” value is “ineffective”. In addition, in series [2], the Pain of sunburn result is “able to alleviate the pain”. Also, the “Description after Treatment” value in series [3] (Patient 1, 69, radiation therapy blisters on buttocks (carcinoma of prostate), K-Y Jelly 120 cc, Morphine 90 mg, three times) is “no pain at all, able to”; in series [3] (Patient 2, 57, radiation therapy blisters on buttocks (carcinoma of cervix), K-Y Jelly 120 cc, Morphine 90 cc, every 6 hours times 3 days), “pain disappears”; in series [3] (Patient 3, 73, radiation therapy, very sensitive breasts (carcinoma of breast), Saline 120 cc, Morphine 90 cc, every 6 hours times 7 days), “pain disappeared for”; in series [3] (Patient 4, 4 yr, tonsillectomy, Saline 120 cc, Morphine 90 cc, spray tonsil beds after surgery, one time), “No pain after surgery;”; in series [3] (Patient 5, 6 yr, tonsillectomy, Saline 120 cc, Morphine 90 cc, spray tonsil beds after surgery, one time), “No pain after surgery;”; in series [3] (Patient 6, 13, third degree hot oil burn on right thigh, Saline 120 cc, Morphine 90 cc, spray x 3 over 3 hours), “Pain is gone; complete”. For the same compound, the “Description after Treatment” value is listed as “Able to wear lead” in series [3] (Patient 7, 28, second degree sunburn of shoulders, unable to wear lead apron before, Saline 120 cc, Morphine 90 cc, spray x 2 over 12 hours) and “Stopped all pain” in series [3] (Patient 8, 34, shingles (acute Herpes Zoster), Saline 120 cc, Morphine 90 cc, spray every 4 hours times 3). Further, the “Description after Treatment: time for which pain disappeared” value in series [3] (Patient 3, radiation therapy, breast, Saline 120 cc, Morphine 90 cc, every 6 hours) was “six hours; able to sleep”. For the same compound, the “Description after Treatment: complete healing time” value in series [3] (Patient 6, third degree hot oil burn, Saline 120 cc, Morphine 90 cc spray) is given as “healing over two days”. Further, the “Description after Treatment: healing time” value in series [3] (Patient 8, shingles, Saline 120 cc, Morphine 90 cc spray) is “three days”. In addition, the “Description after Treatment: share of pain disappeared in one day” value in series [3] (Patient 9, 64, shingles on forehead, K-Y Jelly 120 cc, Morphine 90 cc, every 6 hours, in one day) is recorded as 60%-70% of pain. The “Description after Treatment: time to complete disappearance of pain” value in series [3] (Patient 9, shingles on forehead, K-Y Jelly 120 cc, Morphine 90 cc, every 6 hours) is “day, completely in 3-4 days”. In addition, the “Description after Treatment: pain relieved” value in series [3] (Patient 10, 81, shingles of left leg, K-Y Jelly 120 cc, Morphine 90 cc, every 6 hours, over 3 days) is listed as “Pain relieved 50%”. For the same compound, the “Description after Treatment: pain medication needed” value in series [3] (Patient 10, shingles of left leg, K-Y Jelly 120 cc, Morphine 90 cc, every 6 hours) is given as “over 3 days; no more”. Moreover, in series [3] (two or three mg sprayed or applied topically to about six inches square of skin), the “Side effects (addiction, dullness in the brain, respiratory depression, nausea, vomiting, itching)” value is “without any side effects”.
